Laboratory results taken from PubChem BioAssay AID493014 (National Center for Advancing Translational Sciences (NCATS), 2011).
The other results are listed elsewhere or left out. Further columns of the screen follow, without active or inactive calls. The list favours compounds with an active or inconclusive main result. Potencies come from curve fits of mixed quality, noted in brackets.

Assay: qHTS Assay to Find Inhibitors of Chronic Active B-Cell Receptor Signaling
Details: ABC-DLBCL IkBa-CBG/CBR reporter, luminescence ratio (green luciferase fused to IkBa over red control in TMD8 lymphoma cells), 4 h
Summary of the method: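 Compounds up to 46 uM were incubated four hours with TMD8 cells whose green CBG68 luciferase is fused to IkappaBalpha; red CBR luminescence normalised the signal, and concentration-effect curves were fitted to fusion, red and ratio data.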

[1] = measured here: CBR red luminescence, cell number
[2] = measured here: IkBa-CBG green luminescence

Row | SMILES | AC50 [1] | AC50 [2]
1 | c1csc(Cc2nn3c(-c4n[nH]c5c4CCC5)nnc3s2)c1 | 3.66 µM [rising, full curve] | 
2 | N#C/C(=C\c1ccc(F)c(F)c1)C(=O)NC1CCCCC1 | 3.26 µM [falling, full curve] | 
3 | COC(=O)C1=C(C)N(Cc2ccccc2)C(=NCCN2CCOCC2)N[C@H]1CCc1ccccc1 | 20.6 µM [falling, single point] | 
4 | OCCN(CCO)c1ccc(C(c2ccccc2Cl)c2ccc(N(CCO)CCO)cc2Cl)c(Cl)c1 | 29.1 µM [falling, single point] | 16.4 µM [rising, partial curve, poor fit]
5 | COc1ccc(-c2cc(CCC(=O)N3CCN(c4cc(C)ccc4C)CC3)on2)cc1 | 29.1 µM [falling, single point] | 
6 | COCCCNC(=O)Cc1c(C)c2cc3c(cc2oc1=O)OC(C)(C)CC3 | 1.26 µM [falling, partial curve] | 
7 | COc1ccc2c(c1OC)C(=O)N(c1ccc(F)cc1)C2 | 2.82 µM [rising, partial curve, poor fit] | 
8 | O=c1c(Cl)c(NCc2ccc(F)cc2)cnn1C12CC3CC(CC(C3)C1)C2 | 2.31 µM [rising, full curve] | 
9 | COc1cc(CNC(=O)C2CCCN2S(=O)(=O)c2ccccc2)cc(OC)c1OC (stereo unspecified) | 11.2 µM [rising, partial curve, poor fit] | 
10 | COC(=O)/C=C1/S/C(=N/NC(=O)c2ccccc2)NC1=O | 0.316 µM [falling, full curve, poor fit] | 
11 | O=C(N/N=C/c1cccc(O)c1)c1ccc(COc2ccc3c(c2)CCC3)o1 | 20.6 µM [falling, partial curve, poor fit] | 
12 | COc1cccc(CC2(CO)CCCN(Cc3[nH]c4ccc(C)cc4c3C)C2)c1 (stereo unspecified) | 35.5 µM [falling, single point] | 
13 | c1ccc(CN2CCN(c3nc4ccccc4n4cnnc34)CC2)cc1 | 6.31 µM [rising, single point] | 
14 | Cc1ccc2[nH]c(=O)c3cc(C(=O)NCCC(C)C)sc3c2c1 | 12.6 µM [rising, partial curve, poor fit] | 
15 | COCC(=O)N1CCN(c2cccc(Cl)c2)CC1 | 0.631 µM [rising, full curve, poor fit] | 
16 | CCC(C)N1CC(O)=C(c2nc3ccccc3[nH]2)C1=N (stereo unspecified) | 20 µM [rising, partial curve, poor fit] | 
17 | NS(=O)(=O)c1ccc(N2N=C(c3ccccc3)CC2c2cccc(Cl)c2)cc1 (stereo unspecified) | 29.1 µM [rising, single point] | 
18 | CCC(CC)Nc1ccc(C(CC(N)=O)NC(=O)c2ccccc2)cc1[N+](=O)[O-] (stereo unspecified) | 14.1 µM [rising, partial curve] | 
19 | O=C(NCc1cccnc1)C(=O)NCC1OCCN1S(=O)(=O)c1cc(F)ccc1F (stereo unspecified) | 5.62 µM [rising, single point] | 
20 | CC1=CC(=O)N(c2cccc(C(F)(F)F)c2)C1c1ccc(Cl)cc1 (stereo unspecified) | 39.8 µM [falling, partial curve, poor fit] | 
21 | CC1=Nc2ccccc2/C1=C/c1c(N)n2c(S(=O)(=O)C(C)C)nsc2nc1=O | 5.01 µM [falling, partial curve] | 

Row | SMILES | AC50 [1] | AC50 [2]
22 | COCc1[nH]nc2c1C(c1cc(OC)c(O)c(OC)c1)C(C#N)=C(N)O2 (stereo unspecified) | 11.2 µM [falling, partial curve] | 
23 | Cn1c(SCC(=O)c2ccccc2)nnc1-c1cnccn1 | 22.4 µM [falling, single point] | 
24 | Cc1cc(C)cc(NC(=S)/N=C(\N)Nc2nc(C)c3ccccc3n2)c1 | 25.9 µM [falling, partial curve, poor fit] | 
25 | Cc1nc2c(-c3ccc(F)cc3)cnn2c2c1CCC2 | 2.24 µM [rising, full curve] | 
26 | Cc1ccc(/C=C2\CCC(C3CCCC3)C2=O)cc1 (stereo unspecified) | 11.6 µM [rising, partial curve] | 
27 | O=C(O)C1Cc2ccccc2CN1S(=O)(=O)c1ccccc1 (stereo unspecified) | 11.2 µM [falling, partial curve, poor fit] | 
28 | CCOC(=O)CSc1cc(C)nc(N)n1 | 0.731 µM [falling, partial curve, poor fit] | 
29 | COc1ccc(OC)c2sc(NC(=O)C3=COCCO3)nc12 |  | 0.282 µM [rising, full curve, poor fit]
30 | CS(=O)(=O)O/N=C1\CCCCC1c1ccc([N+](=O)[O-])cc1[N+](=O)[O-] (stereo unspecified) | 15.8 µM [rising, single point] | 
31 | CCCCNC(=O)CSc1nnc(-c2c[nH]c3ccccc23)n1CC1CCCO1 (stereo unspecified) | 9.2 µM [rising, partial curve, poor fit] | 
32 | CCOc1cc(/C=C(/NC(C)=O)C(=O)O)cc(Cl)c1OCc1cccc(Br)c1 | 35.5 µM [falling, single point] | 15.8 µM [rising, partial curve, poor fit]
33 | CCOC(=O)CN1C=C(c2ccc3ccccc3n2)C(C[N+](=O)[O-])c2ccccc21 (stereo unspecified) | 1.46 µM [rising, partial curve] | 
34 | CCOC(=O)COc1c(OC)cc(Cl)cc1C1Nc2ccccc2C(=O)N1c1cccc(C)c1 (stereo unspecified) | 11.2 µM [falling, single point] | 
35 | C=CCn1c(SCC(=O)Nc2ccc(Cl)cn2)nnc1C1CC1 | 25.1 µM [falling, partial curve, poor fit] | 
36 | CCOC(=O)c1c(C)n(C)c2ccc(OC(=O)c3ccc([N+](=O)[O-])cc3)cc12 | 0.461 µM [rising, full curve] | 
37 | Brc1cccc(CNCc2cccs2)c1 | 11.6 µM [rising, partial curve, poor fit] | 
38 | COc1ccc(OCCC(=O)OCC(=O)Nc2ccc(Br)cc2)cc1 | 8.2 µM [falling, partial curve, poor fit] | 
39 | CC(=O)NC(c1cc(F)c2cccnc2c1O)C1CC1 (stereo unspecified) | 29.1 µM [rising, single point] | 29.1 µM [falling, single point]
40 | COc1ccc(-c2nc(C)c(C(C)=O)n2O)cc1[N+](=O)[O-] | 17.8 µM [falling, partial curve] | 
41 | COc1ccc2c(c1)OC[C@H]1[C@H]2N2C(=O)c3cc(Br)ccc3NC(=O)[C@@]2(C)[C@H]1c1ccccc1 | 3.66 µM [falling, full curve] | 
42 | COc1ccc(C)cc1NC(=O)CSc1nnc(-c2ccccn2)n1Cc1ccco1 | 35.5 µM [falling, single point] | 

Row | SMILES | AC50 [1] | AC50 [2]
43 | Nc1ccccc1Nc1nc2ccccc2[nH]1 | 11.2 µM [falling, partial curve] | 
44 | O=C(CC1COc2ccccc2O1)Nc1ccccn1 (stereo unspecified) | 16.4 µM [falling, single point] | 
45 | Cc1cc(Nc2ccccc2)nc(-c2ccccc2O)n1 | 23.1 µM [falling, partial curve, poor fit] | 
46 | O=C(N=Nc1c(O)[nH]c2ccc(F)cc12)C1COc2ccccc2O1 (stereo unspecified) | 17.8 µM [falling, single point] | 
47 | Cc1ccc(OCC(=O)NNC(=O)Cc2ccc(S(=O)(=O)N3CCOCC3)s2)cc1 | 8.2 µM [rising, partial curve] | 
48 | CCc1ccc(NCCC(=O)c2ccc(Br)cc2)cc1 | 10 µM [rising, partial curve, poor fit] | 
49 | CCCC(=O)N(CCc1ccccc1)Cc1nc2ccccc2c(=O)[nH]1 | 17.8 µM [falling, partial curve, poor fit] | 
50 | CCOC(=O)C1=C(O)/C(=C/c2cc(OC)c(OC)c(OC)c2)SC1=Nc1ccc(OC)cc1 | 0.1 µM [rising, full curve, poor fit] | 
51 | Cc1ccc(N(CC2CO2)S(=O)(=O)c2ccc(C)cc2)cc1 (stereo unspecified) | 22.4 µM [falling, single point] | 
52 | Cc1ccc(CN=c2c([N+](=O)[O-])nn(-c3ccc4c(c3)OCCO4)n2O)cc1 | 25.9 µM [rising, single point] | 
53 | COc1cc(CNCc2cccnc2)ccc1OCC(=O)NC(C)(C)C | 3.55 µM [rising, partial curve, poor fit] | 
54 | Cc1ccccc1CSc1nnc(NC(=O)Cc2cccs2)s1 | 16.4 µM [rising, partial curve, poor fit] | 
55 | COc1cccc(C(=O)N/N=C/c2ccc(OC3CSC3)cc2)c1 | 0.092 µM [falling, full curve] | 
56 | Cc1ccc(S(=O)(=O)N2CCCCC2C(=O)O)cc1 (stereo unspecified) | 3.98 µM [rising, full curve, poor fit] | 
57 | O=C(O)c1ccc(CSc2ncnc3c2cnn3Cc2ccccc2)cc1 | 8.91 µM [falling, partial curve] | 
58 | NS(=O)(=O)OCCCc1ccc(C(F)(F)F)cc1 | 5.62 µM [falling, partial curve, poor fit] | 
59 | O=C(Cn1c(=O)c2c(ncn2C2CCCC2)n(Cc2ccccc2)c1=O)N1CCc2ccccc21 | 18.4 µM [falling, partial curve] | 
60 | CCCc1cc(C(=O)Nc2cccc(C(C)=O)c2)no1 | 12.6 µM [rising, single point] | 
61 | Cc1cccc(Nc2nc(-c3cccs3)cs2)n1 | 16.4 µM [falling, partial curve] | 
62 | Nc1nc(N)c2[nH]c(-c3ccccc3)nc2n1 | 2 µM [falling, full curve] | 
63 | Cc1cc2oc(=O)cc(CN3CCN(C/C=C/c4ccccc4)CC3)c2cc1O | 12.6 µM [falling, partial curve, poor fit] | 

Three compounds drawn at random from those above, as already listed:
Row | SMILES | AC50 [1] | AC50 [2]
14 | Cc1ccc2[nH]c(=O)c3cc(C(=O)NCCC(C)C)sc3c2c1 | 12.6 µM [rising, partial curve, poor fit] | 
18 | CCC(CC)Nc1ccc(C(CC(N)=O)NC(=O)c2ccccc2)cc1[N+](=O)[O-] (stereo unspecified) | 14.1 µM [rising, partial curve] | 
8 | O=c1c(Cl)c(NCc2ccc(F)cc2)cnn1C12CC3CC(CC(C3)C1)C2 | 2.31 µM [rising, full curve] | 
